These are yes or no findings as the source states them, for the method shown.
Experiments:
[1] = target: LacI^Cys-Lite (LacI^ΔCterm with C107A, C140A, C281A) (E. coli) (UniProt P03023); experiment: SEC; analytical gel filtration on HiLoad 16/600 Superdex 200, 0.2 mL/min, buffer C (200 mM Tris-HCl pH 7.5, 200 mM KCl, 1 mM EDTA, 0.5 mM TCEP); column calibrated with proteins of known molecular weight; dimer to monomers; both purified
[2] = target: LacI^Cys-Lite (LacI^ΔCterm with C107A, C140A, C281A) (E. coli) (UniProt P03023); experiment: dynamic light scattering; W130i DLS system, BladeCell cuvette, 4°C; 12.1 mg/mL LacI^ΔCterm, 12.8 mg/mL LacI^Cys-Lite, 12.5 mg/mL LacI^Dimer; hydrodynamic diameter; dimer to monomers; both purified

By UniProt entry, the sequences of proteins in these tests, tags left out. Where a name states a change or a piece, a line headed by the entry shows the natural chain unless it says otherwise.
UniProt P03023: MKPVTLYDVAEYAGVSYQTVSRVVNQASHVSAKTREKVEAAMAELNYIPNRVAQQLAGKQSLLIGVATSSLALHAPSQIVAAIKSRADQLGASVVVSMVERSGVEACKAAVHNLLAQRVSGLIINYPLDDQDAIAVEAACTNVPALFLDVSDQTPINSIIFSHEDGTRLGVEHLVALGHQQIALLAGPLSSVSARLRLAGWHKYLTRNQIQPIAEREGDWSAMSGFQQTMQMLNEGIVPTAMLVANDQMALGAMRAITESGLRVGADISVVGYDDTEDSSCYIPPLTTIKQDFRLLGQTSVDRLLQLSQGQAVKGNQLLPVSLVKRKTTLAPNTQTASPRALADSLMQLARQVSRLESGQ

- binding [1]: no binding
- binding [2]: no binding (tested: 12.8 mg/mL)
Substance: LacI^Cys-Lite (LacI^ΔCterm with C107A, C140A, C281A) (from UniProt P03023 1-338) (domain or fragment)
